# Where a name gives a salt, the structure may show the parent alone. Some of the results follow. Repeats in this data set agree poorly, so a single value says little.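 Cells: ReNCell VM human fetal ventral-midbrain neural progenitors, differentiated mitogen-free. Blinded raters compared doublecortin-stained (early neurons) or tyrosine hydroxylase-stained (dopaminergic neurons) images with untreated wells, where 0 means no change. After repeats and both raters were averaged, compounds scoring 2 or above became hits for retesting.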
# Assays:
# [1] = tested on: ReNCell VM; assay: neuronal differentiation score (DCX+ cell fraction vs untreated, manual image score) (score (-3 to 3)); higher = more neuronal differentiation; details: 2 uM, 2 weeks
# [2] = tested on: ReNCell VM; assay: dopaminergic neuron differentiation score (TH+ cell fraction vs untreated, manual image score) (score (0 to 3)); higher = more TH+ dopaminergic neuron differentiation; details: 2 uM, 4 weeks, BDNF 10 ng/ml + GDNF 10 ng/ml
structure (smiles),measurement,setting,value
c1ccc2sc(C3(N4CCCCC4)CCCCC3)cc2c1 [BTCP maleate],neuronal differentiation score,[1]; library: Tocriscreen,inactive: 0
same,dopaminergic neuron differentiation score,[2]; library: Tocriscreen,inactive: 0
O=P1(NCCCl)OCCCN1CCCl (centres undefined) [Ifosfamide],neuronal differentiation score,[1]; library: Prestwick,inactive: 0
same,dopaminergic neuron differentiation score,[2]; library: Prestwick,inactive: 0
C[N+](C)(C)CC#CCOC(=O)Nc1cccc(Cl)c1,neuronal differentiation score,[1]; library: LOPAC,inactive: 0
same,dopaminergic neuron differentiation score,[2]; library: LOPAC,inactive: 0
CN(C)CCc1ccc(O)cc1 [hordenine],neuronal differentiation score,[1]; library: Natural,inactive: 0
same,dopaminergic neuron differentiation score,[2]; library: Natural,inactive: 0
CN1[C@@H]2CC[C@H]1C[C@@H](OC1c3ccccc3CCc3ccccc31)C2 [Deptropine citrate],neuronal differentiation score,[1]; library: Prestwick,inactive: 0
same,dopaminergic neuron differentiation score,[2]; library: Prestwick,inactive: 0
Nc1ccncc1,neuronal differentiation score,[1]; library: Spectrum,inactive: 0
same,dopaminergic neuron differentiation score,[2]; library: Spectrum,inactive: 0
CC(N)Cc1ccc(O)cc1 (centres undefined),neuronal differentiation score,[1]; library: Spectrum,inactive: 0
same,dopaminergic neuron differentiation score,[2]; library: Spectrum,inactive: 0
C[C@]1(C(=O)O)CCC[C@]2(C)c3cc(O)ccc3CC[C@@H]12 [Podocarpic acid],neuronal differentiation score,[1]; library: Phytochemical,inactive: 0
same,dopaminergic neuron differentiation score,[2]; library: Phytochemical,inactive: 0
CC(C)C1CNC(C(=O)O)C1CC(=O)O (centres undefined) [Dihydrokainic acid],neuronal differentiation score,[1]; library: LOPAC,inactive: 0
same,dopaminergic neuron differentiation score,[2]; library: LOPAC,inactive: 0
C=C[C@H]1CN2CC[C@H]1C[C@@H]2[C@@H](O)c1ccnc2ccccc12,neuronal differentiation score,[1]; library: Spectrum,inactive: 0
same,dopaminergic neuron differentiation score,[2]; library: Spectrum,inactive: 0
CNc1ccc2oc(C[C@H]3O[C@@]4(CC[C@H]3C)O[C@H]([C@H](C)C(=O)c3ccc[nH]3)[C@H](C)C[C@H]4C)nc2c1C(=O)O [Calcimycin],neuronal differentiation score,[1]; library: LOPAC,inactive: 0
same,dopaminergic neuron differentiation score,[2]; library: LOPAC,inactive: 0
C[C@H]1CC[C@]2(NC1)O[C@H]1C[C@H]3[C@@H]4CC[C@H]5C[C@@H](O[C@@H]6O[C@H](CO)[C@H](O[C@@H]7O[C@H](CO)[C@@H](O)[C@H](O[C@@H]8OC[C@@H](O)[C@H](O)[C@H]8O)[C@H]7O[C@@H]7O[C@H](CO)[C@@H](O)[C@H](O)[C@H]7O)[C@H](O)[C@H]6O)CC[C@]5(C)[C@H]4CC[C@]3(C)[C@H]1[C@@H]2C,neuronal differentiation score,[1]; library: Spectrum,inactive: 0
same,dopaminergic neuron differentiation score,[2]; library: Spectrum,inactive: 0

# A different layout for some results above:
structure (smiles) | measurement | setting | value
CN1[C@@H]2CC[C@H]1C[C@@H](OC1c3ccccc3CCc3ccccc31)C2 [Deptropine citrate] | neuronal differentiation score | [1]; library: Prestwick | inactive: 0
CC(N)Cc1ccc(O)cc1 (centres undefined) | neuronal differentiation score | [1]; library: Spectrum | inactive: 0
